PubChem BioAssay AID652272, Drosophila RNAi Screening Center | 2013

- Purpose: 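Finding fly genes that regulate Hedgehog signal transduction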 (primary screen)
- System: Drosophila clone 8 (Cl8) cells
- Knock-down reagent: long dsRNA against Drosophila genes
- Measured: 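Plate reader light from a firefly reporter under a ptc promoter fragment that responds to Hedgehog, with Renilla light as transfection reference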
- Scale: firefly Hh reporter signal: higher = more ptc reporter light; Renilla reference signal: higher = more Renilla control light
- Hit rule: 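Hit when the z-score averaged over two replicates is under -2 or over +3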
- Meaning of the calls: active = hit: reporter lowered or raised; inactive = not a hit
The deposit covers about 21,000 reagents; shown is a random part of those that have a named target and a result. Of all reagents, 503 (2.4%) were called active. 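Raw plate light values, not normalised; calls rest on replicate z-scores that were not deposited; hits include reporter decreases as well as increases.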 A number with no mark means an inactive call. The numbers tell different reagents against one gene apart. The record does not give: the amount of reagent, the time to read-out.

target gene	reagent	firefly Hh reporter signal, replicate 1	firefly Hh reporter signal, replicate 2	firefly Hh reporter signal, replicate 3	Renilla reference signal, replicate 1	Renilla reference signal, replicate 2
CG30429	1	99962	2.21e5		2615	9552
CG4133	1	48427	57779		1585	1577
pen-2 (presenilin enhancer)	1	1.21e5	2.84e5		3805	11865
RpL7A (Ribosomal protein L7A)	1	22902 (active)	44744		1595	4555
IntS10 (Integrator 10)	1	71152	47586		1897	3302
CG2127	1	97351	55420		2505	5121
Mys45A (Mystery 45A)	1	70530	39563		3382	1780
CG15279	1	88032	43284		3328	1801
CG30203	1	73073	47024		1905	3558
CG5089	1	88140	72844		3954	3120
CG5131	1	1.30e5	73843		3328	6626
JTBR	1	80224	40530		2774	2832
Or33c (Odorant receptor 33c)	1	99921	46290		1880	3813
CG6805	1	1.74e5	1.02e5		7600	4490
CG6793	1	36107	56184	66390	6425	4417
CG4325	1	79568	1.51e5		2064	4844
CG2321	1	1.30e5	73963		3035	2075
CG9316	1	75545	61003		2187	6085
CG34265	1	97376	2.85e5		2346	11888
mesh	1	5.12e5	5.18e5	87864	3803	3008
mesh	2	1.47e5	1.58e5		5280	4199
mesh	3	84661	1.07e5		3268	3250
CG3108	1	1.45e5	1.26e5		3416	3344
Rpt3R (Regulatory particle triple-A ATPase 3-related)	1	44480	74738		1403	2400
CG15515	1	1.17e5	1.43e5		4470	4209
CG14154	1	62777	40828	61560	2757	4198
Edg91 (Ecdysone-dependent gene 91)	1	67692	66251		2487	1385
CG16790	1	1.24e5	1.35e5		3427	3107
CG6927	1	1.09e5	78371		2245	1705
Pex2 (Peroxin 2)	1	85136	98451		4084	3408
Amph (Amphiphysin)	1	98581	62272		5095	2248
sqa (spaghetti-squash activator)	1	46620	53476		2177	2219
CG8993	1	56297	55995		2188	3928
lectin-29Ca	1	70941	54817		2408	5264
Scr (Sex combs reduced)	1	34162	38285		1571	1648
RanBP3 (Ran binding protein 3)	1	85668	65237		3690	2512
CG7889	1	1.79e5	1.39e5		4113	2982
Spn28B (Serpin 28B)	1	2.01e5	4.91e5	80082	4777	29066
TfIIEalpha (Transcription factor IIEalpha)	1	99977	90443		4293	3401

Laid out differently: entries from further up
target gene,reagent,"firefly Hh reporter signal, replicate 1","firefly Hh reporter signal, replicate 2","firefly Hh reporter signal, replicate 3","Renilla reference signal, replicate 1","Renilla reference signal, replicate 2"
CG4133,1,48427,57779,,1585,1577
pen-2 (presenilin enhancer),1,1.21e5,2.84e5,,3805,11865
RpL7A (Ribosomal protein L7A),1,22902 (active),44744,,1595,4555
IntS10 (Integrator 10),1,71152,47586,,1897,3302
CG2127,1,97351,55420,,2505,5121
Mys45A (Mystery 45A),1,70530,39563,,3382,1780
